Binding data for three molecules are collected here from PMC8750359.

Sequences of proteins named here, by UniProt entry; tags and fusion partners are left off.
UniProt P45700: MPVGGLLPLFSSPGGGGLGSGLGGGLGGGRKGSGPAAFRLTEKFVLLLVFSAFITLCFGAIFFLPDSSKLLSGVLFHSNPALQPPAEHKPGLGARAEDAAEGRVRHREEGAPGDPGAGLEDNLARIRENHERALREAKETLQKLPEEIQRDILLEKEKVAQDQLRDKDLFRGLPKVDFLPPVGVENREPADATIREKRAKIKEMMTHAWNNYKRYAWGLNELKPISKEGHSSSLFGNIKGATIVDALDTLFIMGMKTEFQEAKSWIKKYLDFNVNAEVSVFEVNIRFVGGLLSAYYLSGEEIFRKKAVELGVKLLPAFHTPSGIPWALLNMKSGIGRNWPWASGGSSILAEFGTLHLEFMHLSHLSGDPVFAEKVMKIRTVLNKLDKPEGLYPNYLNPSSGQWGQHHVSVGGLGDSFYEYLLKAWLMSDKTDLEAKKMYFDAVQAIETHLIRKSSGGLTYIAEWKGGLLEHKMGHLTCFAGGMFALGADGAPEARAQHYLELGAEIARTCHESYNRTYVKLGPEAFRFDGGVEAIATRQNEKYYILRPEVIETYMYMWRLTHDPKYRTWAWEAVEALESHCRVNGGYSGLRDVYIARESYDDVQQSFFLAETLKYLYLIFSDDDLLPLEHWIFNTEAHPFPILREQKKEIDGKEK
UniProt P33908: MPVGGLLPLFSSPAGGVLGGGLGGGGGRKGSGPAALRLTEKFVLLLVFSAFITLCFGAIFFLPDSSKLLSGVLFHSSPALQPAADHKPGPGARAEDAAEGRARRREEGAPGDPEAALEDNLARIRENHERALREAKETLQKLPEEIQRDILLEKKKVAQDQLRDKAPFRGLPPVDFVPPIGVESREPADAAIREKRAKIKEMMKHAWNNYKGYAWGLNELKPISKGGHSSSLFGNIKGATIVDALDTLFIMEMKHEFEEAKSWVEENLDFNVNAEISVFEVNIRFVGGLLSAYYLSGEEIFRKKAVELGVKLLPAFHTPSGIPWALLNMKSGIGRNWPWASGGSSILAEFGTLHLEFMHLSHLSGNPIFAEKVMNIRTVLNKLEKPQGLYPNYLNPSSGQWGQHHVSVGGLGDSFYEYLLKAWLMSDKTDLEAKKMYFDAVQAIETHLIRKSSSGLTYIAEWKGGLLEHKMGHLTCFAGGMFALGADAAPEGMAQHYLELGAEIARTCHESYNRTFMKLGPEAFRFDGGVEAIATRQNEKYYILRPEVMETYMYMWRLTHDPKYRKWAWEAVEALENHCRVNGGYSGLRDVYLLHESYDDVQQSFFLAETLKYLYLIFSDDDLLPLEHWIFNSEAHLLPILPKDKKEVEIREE

These are yes or no findings as the source states them, for the method shown. For part of these data: In cells and extracts the contact can be indirect. Some results given as binding are weak or reduced against the parent protein; the word gives no strength. For part of these data: Where a sequence is shown, tags or fusion partners need not be part of it.

The target in assay [1] is T1, NKCC2 C1-term (proximal region of the NKCC2 C terminus, residues 661–768) (mouse) (UniProt P55014).
T1 sequence: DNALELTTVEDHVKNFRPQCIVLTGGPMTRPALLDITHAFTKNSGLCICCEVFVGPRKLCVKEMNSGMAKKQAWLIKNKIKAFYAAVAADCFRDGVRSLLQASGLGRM
Kind of assay: two-hybrid; screen: AH109 expressing the NKCC2 C-terminal bait mated with Y187 pretransformed with a human kidney cDNA library; selection on -Leu -Trp -His, then -Leu -Trp -His -Ade; beta-galactosidase test.

The target in assay [2] is WT ManIA-V5 (mouse Golgi alpha1,2-mannosidase IA, V5-tagged) (mouse) (UniProt P45700). As to the kind of experiment: co-IP; HEK cells transiently co-transfected with Myc-NKCC2 (or mutant) and ManIA-V5 (or ΔNter); IP with anti-V5, protein G beads, blot with anti-Myc; lysis buffer 0.4 M NaCl, 1.5 mM MgCl2, 10 mM Hepes pH 7.9, 5% glycerol, 0.5% Nonidet P-40.
The target is the same in assay [3]. Kind of assay: co-IP; cells (line not stated) transfected with WT NKCC2 or N442Q/N452Q with or without ManIA-V5; IP with anti-Myc or anti-V5, blot with anti-Myc.

“Golgi alpha1,2-mannosidase IA (ManIA), clone # 40 from a human kidney cDNA library (from UniProt P33908 1-653) (enzyme)”: the binding result in assay [1] was “binds”.

B1: Myc-NKCC2 Y998X (Bartter syndrome type 1 mutant) (domain or fragment, UniProt P55014 1-997)
chain: MSVSIPSNSVPSSASRFQVHVINEGHGSAAAVGDSADPPHYEETSFGDEAQNRLRISFRPGNQECYDNFLQTGETAKTDTTFHAYDSHTNTYYLQTFGHNTMDAVPKIEYYRNTGSVSGPKVNRPSLLEIHEQLAKNVTVAPGSADRVANGDGMPGDEQAENKEEDMTGVVKFGWVKGVLVRCMLNIWGVMLFIRLSWIVGEAGIGLGVLIILLSTMVTSITGLSTSAIATNGFVRGGGAYYLISRSLGPEFGGSIGLIFAFANAVAVAMYVVGFAETVVDLLKESDSMMVDPTNDIRIIGSITVVILLGISVAGMEWEAKAQVILLVILLIAIANFFIGTVIPSNNEKKSRGFFNYQASIFAENFGPSFTKGEGFFSVFAIFFPAATGILAGANISGDLEDPQDAIPRGTMLAIFITTVAYIGVAICVAACVVRDATGSMNDTIVSGMNCNGSAACGLGYDFSRCQHEPCQYGLMNNFQVMSMVSGFGPLITAGIFSATLSSALASLVSAPKVFQALCKDNIFKGLQFFAKGYGKNNEPLRGYFLTFVIAMAFILIAELNVIAPIISNFFLASYALINFSCFHASYAKSPGWRPAYGIYNMWVSLFGAILCCAVMFVINWWAAVITYVIELFLYIYVTYKKPDVNWGSSTQALSYVSALDNALELTTVEDHVKNFRPQCIVLTGGPMTRPALLDITHAFTKNSGLCICCEVFVGPRKLCVKEMNSGMAKKQAWLIKNKIKAFYAAVAADCFRDGVRSLLQASGLGRMKPNTLVIGYKKNWRKAPLSELENYVGIIHDAFDFEIGVVIVRISQGFDISPVLQVQDELEKLEQERLALEAAIKDNECEEGKGGIRGLFKKAGKLNITKPAPKKDGNISSIQSMHVGEFNQKLVEASAQFKKKQGKGTIDVWWLFDDGGLTLLIPYILTLRKKWKDCKLRIYVGGKITRIEEEKISMASLLSKFRIKFADIHIIGDINIKPNKESWKVFEEMIEPYRLH
modifications: immature, core-glycosylated form only
For the molecule B1, in assay [2], the binding result is “binds”.

B2: unglycosylated Myc-NKCC2 (N442Q/N452Q) (protein, UniProt P55014 1-1095)
chain: MSVSIPSNSVPSSASRFQVHVINEGHGSAAAVGDSADPPHYEETSFGDEAQNRLRISFRPGNQECYDNFLQTGETAKTDTTFHAYDSHTNTYYLQTFGHNTMDAVPKIEYYRNTGSVSGPKVNRPSLLEIHEQLAKNVTVAPGSADRVANGDGMPGDEQAENKEEDMTGVVKFGWVKGVLVRCMLNIWGVMLFIRLSWIVGEAGIGLGVLIILLSTMVTSITGLSTSAIATNGFVRGGGAYYLISRSLGPEFGGSIGLIFAFANAVAVAMYVVGFAETVVDLLKESDSMMVDPTNDIRIIGSITVVILLGISVAGMEWEAKAQVILLVILLIAIANFFIGTVIPSNNEKKSRGFFNYQASIFAENFGPSFTKGEGFFSVFAIFFPAATGILAGANISGDLEDPQDAIPRGTMLAIFITTVAYIGVAICVAACVVRDATGSMQDTIVSGMNCQGSAACGLGYDFSRCQHEPCQYGLMNNFQVMSMVSGFGPLITAGIFSATLSSALASLVSAPKVFQALCKDNIFKGLQFFAKGYGKNNEPLRGYFLTFVIAMAFILIAELNVIAPIISNFFLASYALINFSCFHASYAKSPGWRPAYGIYNMWVSLFGAILCCAVMFVINWWAAVITYVIELFLYIYVTYKKPDVNWGSSTQALSYVSALDNALELTTVEDHVKNFRPQCIVLTGGPMTRPALLDITHAFTKNSGLCICCEVFVGPRKLCVKEMNSGMAKKQAWLIKNKIKAFYAAVAADCFRDGVRSLLQASGLGRMKPNTLVIGYKKNWRKAPLSELENYVGIIHDAFDFEIGVVIVRISQGFDISPVLQVQDELEKLEQERLALEAAIKDNECEEGKGGIRGLFKKAGKLNITKPAPKKDGNISSIQSMHVGEFNQKLVEASAQFKKKQGKGTIDVWWLFDDGGLTLLIPYILTLRKKWKDCKLRIYVGGKITRIEEEKISMASLLSKFRIKFADIHIIGDINIKPNKESWKVFEEMIEPYRLHESHKDLTTAEKLKRESPWKITDAELEAVKEKSYRQVRLNELLQEHSRAANLIVLSLPVARKGSISDLLYMAWLEILTKNLPPVLLVRGNHKNVLTFYS
As to B2, in assay [3], the binding result is “binds”.
